# Patent publication CN112830970A
# Amino acid sequences for entries named in this document (tags omitted). Residues count along the entry.
# UniProt P20273, residues 20-847: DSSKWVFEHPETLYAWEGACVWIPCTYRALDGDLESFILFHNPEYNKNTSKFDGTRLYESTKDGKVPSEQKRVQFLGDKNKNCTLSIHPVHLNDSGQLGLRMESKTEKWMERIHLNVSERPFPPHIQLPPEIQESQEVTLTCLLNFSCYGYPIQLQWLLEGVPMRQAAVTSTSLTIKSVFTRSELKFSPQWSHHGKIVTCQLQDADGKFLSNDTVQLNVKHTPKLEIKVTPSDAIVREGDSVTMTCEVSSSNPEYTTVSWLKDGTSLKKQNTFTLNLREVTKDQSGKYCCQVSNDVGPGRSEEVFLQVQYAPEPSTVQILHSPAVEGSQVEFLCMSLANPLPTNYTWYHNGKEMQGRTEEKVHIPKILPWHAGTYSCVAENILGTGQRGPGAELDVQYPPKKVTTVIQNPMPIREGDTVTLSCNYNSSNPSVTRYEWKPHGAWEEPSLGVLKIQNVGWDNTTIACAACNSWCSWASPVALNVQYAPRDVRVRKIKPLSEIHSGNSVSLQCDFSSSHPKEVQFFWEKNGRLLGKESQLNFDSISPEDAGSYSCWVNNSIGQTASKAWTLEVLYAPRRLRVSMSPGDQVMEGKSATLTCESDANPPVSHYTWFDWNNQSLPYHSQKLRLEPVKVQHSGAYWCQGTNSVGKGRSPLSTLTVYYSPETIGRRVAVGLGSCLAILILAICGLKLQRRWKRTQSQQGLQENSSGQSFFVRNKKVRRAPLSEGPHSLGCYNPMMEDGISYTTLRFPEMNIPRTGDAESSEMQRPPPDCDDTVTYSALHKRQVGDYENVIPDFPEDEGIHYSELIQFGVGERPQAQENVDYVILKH
# Positions count from the first letter of the chain named. Results are given in words; binding and its absence hold for the method and conditions named. Some entries that bind do so weakly or less than the wild type.
# B1: H10抗体 (未做人源化处理的原始CD22纳米抗体) (VHH, not shown: a dimerising Fc or GST)
# VHH: AVQLVESGGGLVQPGGSLRLSCAASGFTLDHYHIGWFRQAPGKEREGVSCISNSGGSTNYADSVKGRFTISRDNAKNTVYLQMNSLKPEDTAVYYCAAGRWYYDGSRYCPPGAMDYWGKGTLVTVSS
# B2: H10-2-1 (氨基酸替换设计为1E、37V、44G、45 L、119 Q的人源化CD22纳米抗体) (VHH, not shown: a dimerising Fc or GST)
# VHH: B1 VHH with A1E, F37V, E44G, R45L, K119Q
# B3: H10-2-4 (氨基酸替换设计为1E、37V、44G、45 L、119 Q、47W的人源化CD22纳米抗体) (VHH, not shown: a dimerising Fc or GST)
# VHH: B1 VHH with A1E, F37V, E44G, R45L, G47W, K119Q
# Experiments:
# [1] = molecular target: CD22 on CHO-K1-CD22 cells (表达CD22的重组细胞株) (UniProt P20273); assay: flow cytometry on cells expressing CD22
# [2] = molecular target: CD22 on CHO-K1-CD22 cells (表达CD22的重组细胞株) (UniProt P20273); assay: flow cytometry on recombinant cells expressing CD22, PE anti-human IgG
Binder,binding [1],binding [2]
B1,binds,–
B2,–,binds
B3,–,binds
